Publication PMC4511450
These are yes or no findings as the source states them, for the method shown. Binding seen in cells or lysates may run through a third protein. Some results given as binding are weak or reduced against the parent protein; the word gives no strength. One block for each substance: values may come before it.

The chains behind the UniProt entries cited, without tags or fusion partners. Residues count along the entry.
UniProt P21579: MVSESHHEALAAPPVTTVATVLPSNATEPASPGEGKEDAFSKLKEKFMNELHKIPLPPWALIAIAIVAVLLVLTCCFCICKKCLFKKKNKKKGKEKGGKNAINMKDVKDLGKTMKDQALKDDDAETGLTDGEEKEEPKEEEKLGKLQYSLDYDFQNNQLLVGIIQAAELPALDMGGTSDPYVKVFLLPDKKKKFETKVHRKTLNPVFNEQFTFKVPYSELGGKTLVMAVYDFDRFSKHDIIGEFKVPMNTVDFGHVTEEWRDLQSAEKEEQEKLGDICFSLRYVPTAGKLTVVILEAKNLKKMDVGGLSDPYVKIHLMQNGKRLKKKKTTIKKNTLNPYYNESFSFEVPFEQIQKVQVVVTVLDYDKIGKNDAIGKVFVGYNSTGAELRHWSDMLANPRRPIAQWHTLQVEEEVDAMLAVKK
UniProt P08592, residues 18-770: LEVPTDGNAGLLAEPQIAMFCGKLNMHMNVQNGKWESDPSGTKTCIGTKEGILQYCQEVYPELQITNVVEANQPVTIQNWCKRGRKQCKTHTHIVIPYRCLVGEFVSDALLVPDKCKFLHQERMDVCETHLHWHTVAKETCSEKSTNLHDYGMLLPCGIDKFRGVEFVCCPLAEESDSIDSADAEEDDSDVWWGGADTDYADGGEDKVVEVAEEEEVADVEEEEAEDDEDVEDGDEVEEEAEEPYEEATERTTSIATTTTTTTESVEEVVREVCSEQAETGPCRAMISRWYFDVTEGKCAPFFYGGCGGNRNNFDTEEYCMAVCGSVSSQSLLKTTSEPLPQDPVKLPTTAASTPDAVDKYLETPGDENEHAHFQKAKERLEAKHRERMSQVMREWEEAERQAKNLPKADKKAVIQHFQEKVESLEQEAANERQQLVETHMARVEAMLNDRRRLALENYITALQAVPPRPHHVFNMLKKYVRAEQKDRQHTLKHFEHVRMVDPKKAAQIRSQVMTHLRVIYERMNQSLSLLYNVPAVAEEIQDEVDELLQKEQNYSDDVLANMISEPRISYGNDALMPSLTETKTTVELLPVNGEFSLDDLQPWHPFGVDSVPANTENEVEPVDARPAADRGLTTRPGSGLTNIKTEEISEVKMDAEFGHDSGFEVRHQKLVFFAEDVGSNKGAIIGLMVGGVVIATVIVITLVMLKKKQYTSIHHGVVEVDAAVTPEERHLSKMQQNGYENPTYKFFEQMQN
UniProt P21707: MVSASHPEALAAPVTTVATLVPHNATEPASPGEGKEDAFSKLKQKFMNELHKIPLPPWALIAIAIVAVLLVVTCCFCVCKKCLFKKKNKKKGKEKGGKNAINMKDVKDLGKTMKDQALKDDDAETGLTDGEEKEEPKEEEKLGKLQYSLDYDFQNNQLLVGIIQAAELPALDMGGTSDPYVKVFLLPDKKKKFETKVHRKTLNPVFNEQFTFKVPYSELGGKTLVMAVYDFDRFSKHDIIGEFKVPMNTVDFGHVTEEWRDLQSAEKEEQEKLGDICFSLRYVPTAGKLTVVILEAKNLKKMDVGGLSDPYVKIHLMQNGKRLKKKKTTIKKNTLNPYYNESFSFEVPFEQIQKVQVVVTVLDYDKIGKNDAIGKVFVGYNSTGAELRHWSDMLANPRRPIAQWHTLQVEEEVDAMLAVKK

Assays:
V5-tagged Syt-1 = V5-tagged Syt-1 (UniProt P21579); assay: co-IP; CHO cells stably transfected with APP695, transiently transfected with V5-tagged Syt-1 or Syt-9; IP with anti-V5, control IgG; Western blot
[1] = biological target: APP (endogenous, PC12 cells) (rat (endogenous in PC12)) (UniProt P08592); assay: proximity ligation; in situ PLA (Duolink) in fixed naive PC12 cells with rabbit anti-APP (C66) and mouse anti-Syt-1; negative control with only one primary antibody
[2] = biological target: GST-tagged E1 domain of APP (UniProt P05067); assay: pull-down; immobilised GST-tagged APP ectodomain fragments exposed to lysates of CHO cells expressing V5-tagged Syt-1, -2 or -9; Western blot with anti-V5; only the target purified
[3] = biological target: GST-tagged E2 domain of APP (UniProt P05067); assay: as above

binding (V5-tagged Syt-1): binds
Substance: APP695 isoform stably expressed in CHO cells (from UniProt P05067-4 18-695)

binding [1]: binds
Substance: Syt-1 (endogenous, PC12 cells) (from UniProt P21707 1-421)

binding [2]: no binding | binding [3]: no binding
Substance: V5-tagged Syt-1 (from UniProt P21579 1-422)
